# Data as given in PubChem BioAssay AID540256 (National Center for Advancing Translational Sciences (NCATS), 2011).
# The campaign covered roughly 300,000 compounds. About 3,700 (1.2%) were called active. This list was built around the results that the source calls inconclusive (neither active nor inactive); the mix of calls is not that of the screen. Calls come from the whole dose curve; tested in HEK293 cells. Potencies beside an inconclusive call are fits to weak or partial responses and may not hold up.
# Assay: qHTS for Inhibitors of binding or entry into cells for Lassa Virus; note: nearly all actives have a fitted effect of over 50% in size
# Conditions: Lassa virus pseudotype entry inhibition, cell reporter; activity change, negative = inhibition: at 37.9 µM (top of the series) unless noted
# % is set by controls: 0 for no effect and ±100 for the full control effect; potency is the fitted concentration of half-maximal effect.
SMILES,Potency,"activity change, negative = inhibition"
CSC1SCC2C(=O)N(C)C(C(C)C)C(=O)OCC(NC(=O)c3cnc4ccccc4n3)C(=O)NC(C)C(=O)N(C)C1C(=O)N(C)C(C(C)C)C(=O)OCC(NC(=O)c1cnc3ccccc3n1)C(=O)NC(C)C(=O)N2C (stereo unspecified),"inconclusive: 1 µM [inhibitor, full curve, poor fit]",
O=C1CCCc2cc(S(=O)(=O)NCC3CCC(C(=O)Nc4ccc(Cl)cc4)CC3)ccc2N1 (stereo unspecified),"inconclusive: 7.08 µM [inhibitor, full curve, poor fit]",
Nc1ccc2[nH]c(=S)[nH]c2c1,"inconclusive: 0.316 µM [inhibitor, full curve, poor fit]",
CN1c2ccc(Cl)cc2-c2nc(SCC(=O)NCc3ccc(F)cc3)ncc2S1(=O)=O,"inconclusive: 17.8 µM [activator, single point]",
O=C(CN1CCN(C(=O)c2cccs2)CC1)Nc1ccc(Br)cc1,"inconclusive: 7.08 µM [inhibitor, full curve, poor fit]",
Cc1ccc(/C=N/NC(=O)CSc2nc3ccccc3c(=O)n2-c2ccccc2C)s1,"inconclusive: 20 µM [inhibitor, single point]",
O=C(N/N=C/c1cccnc1)c1cc(O)c(O)c(O)c1,"inconclusive: 35.5 µM [inhibitor, partial curve, poor fit]",
CCOc1ccccc1NC(=O)c1ccc(NC(=O)c2ccco2)cc1,,inactive: -2.99%
CCOC(=O)c1c(C)[nH]c(C(=O)OCC(=O)NC2(C#N)CCCCC2)c1C,"inconclusive: 20 µM [inhibitor, single point]",
Cc1c(Cl)cccc1NC(=O)Nc1ccc(C(=O)N2CCCC2)cc1,"inconclusive: 35.5 µM [inhibitor, single point]",
COc1ccc(C(=O)NCCCOc2cccc(NC(C)=O)c2)cc1,"inconclusive: 35.5 µM [inhibitor, single point]",
CCn1nnnc1SCC(=O)N1CCCc2ccccc21,,inactive: 13.6%
Cc1ccc(SCc2cc(=O)[nH]c(N3CCN(Cc4ccccc4)CC3)n2)cc1,,inactive: -11.3%
COc1ccccc1OCCCn1cc(C=O)c2ccccc21,"inconclusive: 7.08 µM [inhibitor, full curve, poor fit]",
COc1cc(/C=N/N(C)c2ccccc2)cc(Cl)c1O,"inconclusive: 20.6 µM [activator, partial curve, poor fit]",
Cc1ccc(C(=O)NC(=C(Cl)Cl)S(=O)(=O)c2ccc(C)cc2)cc1,"inconclusive: 20.6 µM [inhibitor, partial curve]",
Cc1ccc2nc(C)cc(Nc3ccc4c(c3)OCCO4)c2c1,"inconclusive: 20 µM [inhibitor, single point]",
COc1ccc(OC)c(-c2csc(NC(=O)CSc3ccc(Br)cc3)n2)c1,active: 7.94 µM,
Nc1ccc(Cl)c(-c2nc3ncccc3o2)c1,"inconclusive: 0.199 µM [activator, full curve, poor fit]",
CNC(=O)/C(=C\c1ccc([N+](=O)[O-])cc1)NC(C)=O,"inconclusive: 0.282 µM [activator, full curve, poor fit]",
Cc1[nH]c2ccccc2c1N=Nc1cccc(C(=O)O)c1,"inconclusive: 2.91 µM [activator, full curve, poor fit]",
CC12CNCC(C)(CN(C(c3ccccc3)c3ccccc3)C1)C2,active: 20 µM,

# Reprinted at random: three entries already listed.
SMILES,Potency,"activity change, negative = inhibition"
CN1c2ccc(Cl)cc2-c2nc(SCC(=O)NCc3ccc(F)cc3)ncc2S1(=O)=O,"inconclusive: 17.8 µM [activator, single point]",
Nc1ccc(Cl)c(-c2nc3ncccc3o2)c1,"inconclusive: 0.199 µM [activator, full curve, poor fit]",
Cc1ccc(SCc2cc(=O)[nH]c(N3CCN(Cc4ccccc4)CC3)n2)cc1,,inactive: -11.3%

# Following part

SMILES,Potency,"activity change, negative = inhibition"
O=S(=O)(c1ccc(F)cc1)N1CCN(Cc2ccccc2C(F)(F)F)CC1,"inconclusive: 16.4 µM [inhibitor, partial curve]",
CCN(CC)CCCNc1nc2cc(OC)c(OC)cc2c2nc(-c3ccccc3)nn12,"inconclusive: 4.11 µM [inhibitor, full curve, poor fit]",
Cc1cc(C)cc(Nc2cc(=O)n(C3CCCCC3)c(=O)[nH]2)c1,"inconclusive: 25.1 µM [inhibitor, single point]",
OC12CCCCC1C(c1ccc3c(c1)OCO3)N(Cc1cccc(F)c1)CC2 (stereo unspecified),"inconclusive: 12.6 µM [inhibitor, single point]",
CCC1CSC(Nc2ccc(C(=O)/C=C/c3ccc(Oc4ccccc4)cc3)cc2)=N1 (stereo unspecified),"inconclusive: 15.8 µM [inhibitor, single point]",
N#C/C(=C/c1ccc(-c2ccc(S(N)(=O)=O)cc2)o1)C(=O)Nc1ccccc1,"inconclusive: 32.6 µM [inhibitor, partial curve, poor fit]",
COc1cc(N/C(N)=N/c2nc(C)cc(C)n2)c(OC)cc1Cl,,inactive: -23.3%
COc1cc2cc(C(=O)NCCc3ccccc3)[nH]c2cc1OC,,inactive: -13.9%
FC(F)(F)c1cc(Oc2ccccc2Cl)nc(-c2ccccn2)n1,"inconclusive: 16.4 µM [inhibitor, single point]",
CCOC(=O)c1ccccc1NC(=O)c1c(F)c(F)c(F)c(F)c1F,,inactive: -12.1%
Cc1ccc2c(CN3CC(C)CC(C)C3)cc(=O)oc2c1C (stereo unspecified),,inactive: 5.37%
CCC(C)c1ccc(OCC(=O)Nc2cccc3ccc(C)nc23)cc1 (stereo unspecified),"inconclusive: 25.1 µM [inhibitor, single point]",
CCC(C)NC(=O)c1cc2cc(S(=O)(=O)N3CCCCC3)ccc2n1C (stereo unspecified),,inactive: -9.25% [at 46.1 µM]
CC=CC1=CC2=CC(=O)C(C)(OC(=O)c3c(C)cc(O)cc3O)C(=O)C2=CO1 (stereo unspecified),"inconclusive: 0.0024 µM [inhibitor, full curve, poor fit]",
Cc1ccc(C(C)C)c(OCc2ccc(C(=O)N/N=C/c3cccc(O)c3O)cc2)c1,active: 11.6 µM,
CCOc1ccc(NC(=S)NC(=O)c2cccnc2)c([N+](=O)[O-])c1,,inactive: -5.38%
CCn1ncc(/C=C/C(=O)Nc2c(C)nn(Cc3ccc(Cl)cc3Cl)c2C)c1C,"inconclusive: 9.2 µM [inhibitor, partial curve, poor fit]",
CCC(Sc1nc2c(sc3ccccc32)c(=O)n1CCc1ccc(OC)c(OC)c1)C(=O)N(CC)CC (stereo unspecified),"inconclusive: 35.5 µM [inhibitor, single point]",
COc1ccc(NC(=O)CSc2nnc(Cn3nnc4ccccc43)n2C)cc1,,inactive: -3.11%
CNc1c(NS(=O)(=O)c2ccc3c(c2)CCCC3)c(=O)oc2ccccc12,"inconclusive: 12.6 µM [activator, partial curve, poor fit]",
Cc1ccc(CNC(=O)CCc2cn(C)c3ccccc23)cc1,"inconclusive: 11.2 µM [inhibitor, single point]",
Cc1cccc(-c2cc(C(=O)Nc3sc(C)c(C)c3C(N)=O)c3ccccc3n2)c1,,inactive: -22.9%

SMILES,Potency,"activity change, negative = inhibition"
O=C(NC1CCCCC1)c1ccc2c(c1)OCCO2,,inactive: -8.53% [at 46.1 µM]
Cc1cccc(CN2C(=O)c3ccccc3Sc3ccc(C(=O)NCc4ccco4)cc32)c1,"inconclusive: 35.5 µM [inhibitor, single point]",
CCOc1ccc(NC(=O)c2oc3ccccc3c2NC(=O)COc2cccc(OC)c2)cc1,"inconclusive: 10 µM [activator, partial curve]",
CCS(=O)(=O)c1ncc(Cl)c(C(=O)N2CCN(c3ccc(OC)cc3)CC2)n1,"inconclusive: 28.2 µM [inhibitor, single point]",
COc1ccccc1N1CCN(CCN(C(=O)c2ccc(I)cc2)c2ccccn2)CC1,"inconclusive: 4.61 µM [inhibitor, full curve]",
CC(C)CCNC(=O)c1cccc(C(=O)NCCC(C)C)c1,,inactive: -9.73%
CC1CC(C)CN(CCCOc2ccccc2[N+](=O)[O-])C1 (stereo unspecified),"inconclusive: 11.2 µM [inhibitor, partial curve]",
Cc1ccc(-c2nc(CS(=O)(=O)CC(=O)NCCCN3CCOCC3)c(C)o2)cc1,"inconclusive: 31.6 µM [activator, partial curve, poor fit]",
COc1ccc(-c2nc(SC(C)C(=O)NCC3CCCO3)n[nH]2)cc1 (stereo unspecified),"inconclusive: 3.55 µM [inhibitor, partial curve, poor fit]",
COc1ccc2c(CNCCc3ccc(SC)cc3)c(C(=O)O)n(Cc3ccc(F)cc3)c2c1,"inconclusive: 22.4 µM [inhibitor, single point]",
O=C(c1ccc(-n2cncn2)c([N+](=O)[O-])c1)N1CCN(S(=O)(=O)c2ccccc2F)CC1,"inconclusive: 0.562 µM [activator, single point]",
Cc1cccc(OCCSc2nncn2C)c1,,inactive: -1.16%
COC(=O)C1=C(C)N(Cc2ccco2)C(=O)N[C@H]1c1ccc(Br)cc1,"inconclusive: 5.17 µM [inhibitor, partial curve, poor fit]",
Cc1cc(=O)oc2c(CN3CCN(C)CC3)c(O)c(Cl)cc12,,inactive: 6.24%
O=C1NCC(c2ccccc2)C1C(=O)N/N=C\c1ccc(-c2cccc(Cl)c2Cl)o1 (stereo unspecified),,inactive: -23.3%
O=C(N/N=C/c1coc2ccccc2c1=O)c1cc2ccccc2o1,"inconclusive: 1 µM [inhibitor, single point]",
CN(C)c1cc[n+](CC(=O)c2ccc(OC(F)F)cc2)cc1,"inconclusive: 35.5 µM [inhibitor, single point]",
COc1ccc2oc3cc(C)[n+]([O-])c(-c4ccc(C)cc4)c3c2c1,"inconclusive: 11.2 µM [inhibitor, single point]",
CCOc1ccc(-c2nc(C#N)c(N3CCN(C)CC3)o2)cc1,"inconclusive: 0.058 µM [inhibitor, full curve, poor fit]",
CCn1c(NC(=O)c2cccs2)nc2ccccc21,"inconclusive: 18.3 µM [activator, partial curve]",
CC(C)=CC(=O)Nc1ccc(OCc2ccccc2)cc1,"inconclusive: 35.5 µM [inhibitor, single point]",
Cc1csc(SCC(=O)Nc2ccc(F)cc2Cl)n1,"inconclusive: 35.5 µM [activator, partial curve, poor fit]",
